In all, about 320,000 compounds went through this assay and about 2,100 (0.66%) were called active. This list was built around the results that the source calls inconclusive (neither active nor inactive); the mix of calls is not that of the screen. Calls follow the shape of the dose curve; as a rule, active = well fitted inhibition curve with a large enough effect in the signal ratio, with a control signal flat (not every such curve was filed as active); inconclusive = small, poorly fitted or top-dose-only effect, or effect the other way, or a change in a side signal; inactive = flat fitted curve, though single readings scatter; the % refers to the signal ratio. Potencies of inconclusive entries are doubtful fits and often do not repeat.
assay: qHTS Assay for Lipid Storage Modulators in Drosophila S3 Cells; settings: BODIPY lipid droplet fluorescence, 18-24 h, cells fed with added oleic acid; lipid storage change, negative = inhibition: at 46.1 µM (top of the series) unless noted
Outline: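 Drosophila S3 cells loaded with oleic acid (400 uM, as added) and compounds at several concentrations; lipid droplets imaged by 488-nm laser-scanning cytometry, 500–530 nm intensity and object ratio to cell channel. Percent activity normalized to 20 uM Triacsin C.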
% is scaled to controls: 0 for no effect and ±100 for the full control effect; potency is read from the fitted curve at half-maximal effect.

Row | Compound | Potency | lipid storage change, negative = inhibition
1 | O=C(CSc1nnc(CNC(=O)c2c(F)cccc2Cl)o1)NCc1ccc(F)cc1 | inconclusive: 29.1 µM [falling, single point] | –
2 | CCN1CCCC1CNC(=O)COc1cc(=O)n(C)c2ccccc12 (stereo unspecified) | – | inconclusive: 12.6%
3 | CCCC(=O)Nc1nnc(SCC(=O)NCc2ccc3c(c2)OCO3)s1 | – | inconclusive: 15.2%
4 | Cc1ccc(Cl)cc1N1CCN(S(=O)(=O)c2ccc3c(c2)OCCO3)CC1 | – | inconclusive: 308%
5 | CCOc1ccc(OCCC(=O)NNC(=O)c2cc(OC)c(OC)c(OC)c2)cc1 | – | inconclusive
6 | COc1ccc(OC)c(NC(=O)C2CC(C)=C(C)CC2C(=O)O)c1 (stereo unspecified) | – | inconclusive: -20.4%
7 | O=Cc1c(NCCCN2CCCC2=O)c2ccccc2[nH]c1=O | – | inconclusive: 11.9%
8 | Cc1ccc(CNC(=O)c2cc(-c3ccccc3C)n(CC3CC(c4cccc([N+](=O)[O-])c4)=NO3)n2)cc1 (stereo unspecified) | inconclusive: 9.2 µM [falling, partial curve, poor fit] | –
9 | CCN(CC)CCCNC(=O)CN1N=C(c2ccc(OC)cc2)CCC1=O | inconclusive: 16.4 µM [activator, single point] | –
10 | COc1ccccc1NC(=O)C(=O)NCCC1CCCCN1S(=O)(=O)c1cccs1 (stereo unspecified) | – | inconclusive
11 | CCc1ccccc1Nc1ccc(C(=O)O)cc1N | – | inconclusive: 44.2%
12 | CCCc1c(C(=O)N/N=C/c2sccc2C)nnn1-c1nonc1N | – | inconclusive: -53.4%
13 | O=C(CCc1nc2ccccc2[nH]1)N1CCN(C(=O)c2ccco2)CC1 | – | inconclusive: -3.18%
14 | O=C(CCCN1C(=O)c2ccccc2C1=O)NCc1cccnc1 | inconclusive: 9.2 µM [activator, partial curve, poor fit] | –
15 | Cc1[nH]c2ccccc2c1-c1csc(NC(=O)CN2CCOCC2)n1 | – | inconclusive: 11.1%
16 | CCCCc1nc2ccccc2c(C(=O)O)c1C | inconclusive: 2.59 µM [activator, single point] | –
17 | O=C(Nc1cc(S(=O)(=O)Nc2ccccc2Cl)ccc1O)c1cc2c(s1)CCCC2 | – | inconclusive: 12.3%
18 | O=C(COC(=O)C12CC3CC(CC(C3)C1)C2)NCCc1ccccc1 | – | inconclusive: -154%
19 | CCCCNS(=O)(=O)c1ccc2nc(-c3cccnc3)cc(C(=O)NCCOC)c2c1 | – | inconclusive: 23.9%
20 | COc1ccc2oc(C(=O)OCC(=O)NC3(C#N)CCCC3)c(C)c2c1 | – | inconclusive
21 | COc1ccc(-n2cc(C#N)c(=O)[nH]c2=O)cc1 | – | inconclusive: -52.1% [at 9.22 µM]
22 | COc1ccc2[nH]cc(CCNC(=O)CCC3CCCCC3)c2c1 | active: 16.4 µM | –
23 | CNC(=O)c1[nH]cnc1C(=O)Nc1cccc(Cl)c1 | – | inconclusive: 40.2%
24 | O=C(NCCCO)Nc1ccc2nc(-c3ccco3)c(-c3ccco3)nc2c1 | inconclusive: 0.411 µM [falling, full curve, poor fit] | –
25 | CCOc1ccc(S(=O)(=O)NCCC(=O)NCC(c2ccco2)N2CCCCC2)cc1 (stereo unspecified) | – | inconclusive: 2.05%
26 | Cc1ccc(C)c(NS(=O)(=O)c2ccc(-c3coc(C)n3)cc2)c1 | – | inconclusive: -22.2%

Row | Compound | Potency | lipid storage change, negative = inhibition
27 | COc1ccc(CNC(=O)CN2C(=O)COc3ccc(S(=O)(=O)N4CCOCC4)cc32)cc1 | – | inconclusive: 109%
28 | CN1CCN(S(=O)(=O)c2ccc(N3CCN(c4ccccc4O)CC3)c([N+](=O)[O-])c2)CC1 | – | inconclusive: 13%
29 | COc1ccc(N/C=C/C(=O)c2cc(OC)c(OC)c(OC)c2)cc1 | – | inconclusive: 40.8%
30 | OC(CNCc1ccc(-c2ccccc2)cc1)c1ccccc1 (stereo unspecified) | – | inconclusive: 20.3%
31 | CCOCCCNC(=O)c1ccc(CS(=O)(=O)Cc2ccccc2F)o1 | inconclusive: 20.6 µM [activator, partial curve, poor fit] | –
32 | CCc1c(C)nc(N2CCN(Cc3ccccc3)CC2)[nH]c1=O | inconclusive: 0.146 µM [falling, full curve, poor fit] | –
33 | CCOC(=O)c1oc2c(c1C)/C(=N/O)CCC2 | – | inconclusive: 22.4%
34 | CCN(CC(=O)Nc1ccccc1OC)C(=O)CN1C(=O)NC(C)(c2ccccc2)C1=O (stereo unspecified) | inconclusive: 2.91 µM [activator, single point] | –
35 | CCOC(=O)C1CCN(C(=O)COC(=O)c2cccc(F)c2)CC1 | – | inconclusive: 40%
36 | CCN(CC)c1ccc(NC(=O)C2CCCC2)cc1 | – | inconclusive: -29.5%
37 | O=C(N/C(=C\c1ccco1)C(=O)N1CCOCC1)c1ccco1 | – | inconclusive: 29.5%
38 | CCCc1cc(=O)oc2cc(C)c(CN3CCCC3)c(O)c12 | inconclusive: 29.1 µM [falling, single point] | –
39 | O=C(N/N=C/c1ccco1)c1cccc(S(=O)(=O)Nc2ccccc2Cl)c1 | – | inconclusive: -18.8%
40 | O=C(N1CCOCC1)N1CCN(S(=O)(=O)N2CCOCC2)CC1 | – | inconclusive: -5.78%
41 | COc1ccc(C(=O)/C=C/Nc2ccc(S(=O)(=O)Nc3nc(C)cc(C)n3)cc2)c(OC)c1 | – | inactive: 0.417%
42 | O=CNCc1nc2ccccc2n1CCCc1ccccc1 | inconclusive: 2.59 µM [activator, single point] | –
43 | Cc1ccc2nc(N3CCN(C)CC3)c(C=O)c(=O)n2c1 | inconclusive: 0.184 µM [activator, full curve, poor fit] | –
44 | CC(C)(C)c1ccc(C(=O)N/C(=C\c2cccs2)C(=O)NCc2ccco2)cc1 | – | inconclusive: -39.4%
45 | CCOC(=O)N1CCN(C(=O)COc2cccc3c2CCN(Cc2ccccc2F)C3=O)CC1 | inconclusive: 29.1 µM [activator, single point] | –
46 | O=C(CCCN1C(=O)/C(=C\c2cccs2)SC1=S)Nc1ccccn1 | – | inconclusive: -16.2%
47 | CCOC(=O)Cn1c2ccccc2n2nc(CCC(=O)O)c(=O)nc12 | – | inconclusive: 151%
48 | CCc1nc2ccc(C(=O)NCCCN3CCN(c4ccc(F)cc4)CC3)cc2nc1CC | inconclusive: 18.4 µM [falling, single point] | –
49 | O=C(CCS(=O)(=O)c1ccccc1)Nc1nccs1 | – | inconclusive: -53%
50 | COc1ccc(CN2CCC(C(=O)Nc3ccc(Oc4cccnc4)cc3)CC2)cc1 | – | inconclusive: -43.2%
51 | COc1ccc(-n2ncc(C(C)NS(=O)(=O)c3cc(F)ccc3C)c2C)cc1 (stereo unspecified) | active: 9.2 µM | –
52 | Cn1cc(Cl)c(C(=O)NNC(=S)Nc2cccc(Cl)c2)n1 | inconclusive: 10.3 µM [activator, partial curve] | –

An excerpt of these results, comma-delimited.
Row,Compound,Potency,"lipid storage change, negative = inhibition"
27,COc1ccc(CNC(=O)CN2C(=O)COc3ccc(S(=O)(=O)N4CCOCC4)cc32)cc1,–,inconclusive: 109%
28,CN1CCN(S(=O)(=O)c2ccc(N3CCN(c4ccccc4O)CC3)c([N+](=O)[O-])c2)CC1,–,inconclusive: 13%
29,COc1ccc(N/C=C/C(=O)c2cc(OC)c(OC)c(OC)c2)cc1,–,inconclusive: 40.8%
31,CCOCCCNC(=O)c1ccc(CS(=O)(=O)Cc2ccccc2F)o1,"inconclusive: 20.6 µM [activator, partial curve, poor fit]",–
32,CCc1c(C)nc(N2CCN(Cc3ccccc3)CC2)[nH]c1=O,"inconclusive: 0.146 µM [falling, full curve, poor fit]",–
33,CCOC(=O)c1oc2c(c1C)/C(=N/O)CCC2,–,inconclusive: 22.4%
35,CCOC(=O)C1CCN(C(=O)COC(=O)c2cccc(F)c2)CC1,–,inconclusive: 40%
36,CCN(CC)c1ccc(NC(=O)C2CCCC2)cc1,–,inconclusive: -29.5%
37,O=C(N/C(=C\c1ccco1)C(=O)N1CCOCC1)c1ccco1,–,inconclusive: 29.5%
38,CCCc1cc(=O)oc2cc(C)c(CN3CCCC3)c(O)c12,"inconclusive: 29.1 µM [falling, single point]",–
39,O=C(N/N=C/c1ccco1)c1cccc(S(=O)(=O)Nc2ccccc2Cl)c1,–,inconclusive: -18.8%
42,O=CNCc1nc2ccccc2n1CCCc1ccccc1,"inconclusive: 2.59 µM [activator, single point]",–
43,Cc1ccc2nc(N3CCN(C)CC3)c(C=O)c(=O)n2c1,"inconclusive: 0.184 µM [activator, full curve, poor fit]",–
45,CCOC(=O)N1CCN(C(=O)COc2cccc3c2CCN(Cc2ccccc2F)C3=O)CC1,"inconclusive: 29.1 µM [activator, single point]",–
46,O=C(CCCN1C(=O)/C(=C\c2cccs2)SC1=S)Nc1ccccn1,–,inconclusive: -16.2%
48,CCc1nc2ccc(C(=O)NCCCN3CCN(c4ccc(F)cc4)CC3)cc2nc1CC,"inconclusive: 18.4 µM [falling, single point]",–
49,O=C(CCS(=O)(=O)c1ccccc1)Nc1nccs1,–,inconclusive: -53%
50,COc1ccc(CN2CCC(C(=O)Nc3ccc(Oc4cccnc4)cc3)CC2)cc1,–,inconclusive: -43.2%
51,COc1ccc(-n2ncc(C(C)NS(=O)(=O)c3cc(F)ccc3C)c2C)cc1 (stereo unspecified),active: 9.2 µM,–

The list continues:

Row | Compound | Potency | lipid storage change, negative = inhibition
53 | CCCCn1c(SCC(=O)c2c(N)n(C3CC3)c(=O)[nH]c2=O)nc2cc(S(N)(=O)=O)ccc21 | – | inconclusive
54 | CCO[C@@H]1OC(C(=O)NCc2nc3ccccc3[nH]2)=C[C@H](C)[C@H]1CCCO | – | inactive: -29%
55 | CCN(CC)c1ccc(CNc2nc3ccccc3n2CCN2CCOCC2)cc1 | – | inconclusive: -30.1% [cytotoxic]
56 | O=C(O)CCCNS(=O)(=O)c1ccc2ccccc2c1 | inconclusive: 2.06 µM [falling, full curve, poor fit] | –
57 | O=C(COc1ccccc1C(=O)O)NC1CCCc2ccccc21 (stereo unspecified) | – | inconclusive: 22%
58 | Cc1nnc(SCC(=O)N(C)CC(=O)Nc2ccc(F)cc2)n1Cc1ccccc1 | – | inconclusive: 0.976%
59 | O=C(Oc1ccc(/C=N/n2cnnc2)cc1)c1cccc([N+](=O)[O-])c1 | – | inconclusive: -25.5%
60 | COc1ccc(N2CC(C(=O)NCCc3ccc(Cl)cc3)CC2=O)cc1 (stereo unspecified) | inconclusive: 0.58 µM [activator, single point] | –
61 | c1cnc(N2CC[N+]3(CCCC3)CC2)nc1 | – | inconclusive: -55.4%
62 | c1ccc2c(C3=NNC(=NC4CCCCC4)SC3)c[nH]c2c1 | inconclusive: 13 µM [activator, single point] | –
63 | O=c1cc(N2CCOCC2)[nH]c(=O)n1Cc1ccc(F)cc1 | – | inconclusive: -5.19%
64 | O=C(c1ccc(F)c(S(=O)(=O)N2CCOCC2)c1)N(CCc1ccccc1)Cc1ccccc1 | – | inconclusive
65 | Cc1ccc(C(=O)CSc2nc3cc(S(=O)(=O)N4CCOCC4)ccc3o2)cc1 | – | inconclusive: -48.9%
66 | O=C(COC(=O)C1=COCCO1)Nc1cc(S(=O)(=O)N2CCCCC2)ccc1Cl | – | inconclusive: -12%
67 | CCCCN1CC(=O)N2[C@H]3c4cc(Cl)ccc4OC[C@@H]3[C@H](c3ccccc3)[C@]2(C)C1=O | inconclusive: 0.291 µM [activator, partial curve] | –
68 | COc1ccc(/C=C/C(=O)OCC(=O)Nc2cc(S(=O)(=O)N(C)C)ccc2Cl)cc1 | – | inconclusive: -1.13%
69 | Cc1cccc(N(Cc2cc3ccccc3[nH]c2=O)C(=O)c2cccs2)c1 | inconclusive: 18.4 µM [falling, single point] | –
70 | CC(=O)c1ccc(-c2ccc(C(=O)Nc3nc(C)c(C(C)=O)s3)o2)cc1 | – | inconclusive: -12.8%
71 | O=C(c1ccccc1)c1ccc(-c2ccc(O)cc2)cc1 | inconclusive: 1.64 µM [falling, full curve, poor fit] | –
72 | CCCCc1c(O)nc(SCC(=O)c2ccccc2)[nH]c1=O | – | inconclusive: -75%
73 | COc1ccc(-c2nnc(NC(=O)Cc3ccccc3)o2)cc1 | inconclusive: 29.1 µM [rising, single point] | –
74 | COc1nc(Nc2cccc(F)c2)nc(OC)n1 | – | inconclusive: 12.3%
75 | CC(=O)c1cccc(NC(=O)CSc2ccc(-c3sc(C)nc3C)nn2)c1 | inconclusive: 6.51 µM [activator, single point] | –
76 | NNC(=O)C1CC(O)CN1S(=O)(=O)c1ccc(Cl)cc1 (stereo unspecified) | inconclusive: 0.0073 µM [falling, full curve, poor fit] | –
